Data published in paper PMC8096265, “A functional LSD1 coregulator screen reveals a novel transcriptional regulatory cascade connecting R-loop homeostasis with epigenetic regulation” (Nucleic Acids Research, 2021).
No constants are given. Whether binding was seen depends on the method and setting. Some entries that bind do so weakly or less than the wild type. Sequences can lack the tags named with a protein.

Biological target: T1, H3K27 15-mer peptide of the synthesized peptide array, trimethylated at K27
T1 sequence (peptide, trimethyl-lysine at K27): LATKAARKSAPATGG
Assay: peptide or protein array; synthesized 15-mer peptide arrays (SPOT synthesis on cellulose membrane) incubated with 50 nM DDX19A-GST in interaction buffer (100 mM KCl, 20 mM HEPES pH 7.5, 1 mM EDTA pH 8, 10% glycerol), 1 h, room temperature; detected with anti-GST antibody; both purified

binding: binds
B1: GST-DDX19A (recombinant full-length DEAD-box helicase 19A) (enzyme, UniProt Q9NUU7 1-478)
chain: MATDSWALAVDEQEAAVKSMTNLQIKEEKVKADTNGIIKTSTTAEKTDEEEKEDRAAQSLLNKLIRSNLVDNTNQVEVLQRDPNSPLYSVKSFEELRLKPQLLQGVYAMGFNRPSKIQENALPMMLAEPPQNLIAQSQSGTGKTAAFVLAMLSRVEPSDRYPQCLCLSPTYELALQTGKVIEQMGKFYPELKLAYAVRGNKLERGQKISEQIVIGTPGTVLDWCSKLKFIDPKKIKVFVLDEADVMIATQGHQDQSIRIQRMLPRNCQMLLFSATFEDSVWKFAQKVVPDPNVIKLKREEETLDTIKQYYVLCSSRDEKFQALCNLYGAITIAQAMIFCHTRKTASWLAAELSKEGHQVALLSGEMMVEQRAAVIERFREGKEKVLVTTNVCARGIDVEQVSVVINFDLPVDKDGNPDNETYLHRIGRTGRFGKRGLAVNMVDSKHSMNILNRIQEHFNKKIERLDTDDLDEIEKIAN
